Measured values published in paper PMC7864053.
No constants are given. Whether binding was seen depends on the method and setting. In cells and extracts the contact can be indirect. Some binding calls cover weakened binding; strength is not graded here.

Sequences of proteins named here, by UniProt entry; tags and fusion partners are left off.
UniProt O35346: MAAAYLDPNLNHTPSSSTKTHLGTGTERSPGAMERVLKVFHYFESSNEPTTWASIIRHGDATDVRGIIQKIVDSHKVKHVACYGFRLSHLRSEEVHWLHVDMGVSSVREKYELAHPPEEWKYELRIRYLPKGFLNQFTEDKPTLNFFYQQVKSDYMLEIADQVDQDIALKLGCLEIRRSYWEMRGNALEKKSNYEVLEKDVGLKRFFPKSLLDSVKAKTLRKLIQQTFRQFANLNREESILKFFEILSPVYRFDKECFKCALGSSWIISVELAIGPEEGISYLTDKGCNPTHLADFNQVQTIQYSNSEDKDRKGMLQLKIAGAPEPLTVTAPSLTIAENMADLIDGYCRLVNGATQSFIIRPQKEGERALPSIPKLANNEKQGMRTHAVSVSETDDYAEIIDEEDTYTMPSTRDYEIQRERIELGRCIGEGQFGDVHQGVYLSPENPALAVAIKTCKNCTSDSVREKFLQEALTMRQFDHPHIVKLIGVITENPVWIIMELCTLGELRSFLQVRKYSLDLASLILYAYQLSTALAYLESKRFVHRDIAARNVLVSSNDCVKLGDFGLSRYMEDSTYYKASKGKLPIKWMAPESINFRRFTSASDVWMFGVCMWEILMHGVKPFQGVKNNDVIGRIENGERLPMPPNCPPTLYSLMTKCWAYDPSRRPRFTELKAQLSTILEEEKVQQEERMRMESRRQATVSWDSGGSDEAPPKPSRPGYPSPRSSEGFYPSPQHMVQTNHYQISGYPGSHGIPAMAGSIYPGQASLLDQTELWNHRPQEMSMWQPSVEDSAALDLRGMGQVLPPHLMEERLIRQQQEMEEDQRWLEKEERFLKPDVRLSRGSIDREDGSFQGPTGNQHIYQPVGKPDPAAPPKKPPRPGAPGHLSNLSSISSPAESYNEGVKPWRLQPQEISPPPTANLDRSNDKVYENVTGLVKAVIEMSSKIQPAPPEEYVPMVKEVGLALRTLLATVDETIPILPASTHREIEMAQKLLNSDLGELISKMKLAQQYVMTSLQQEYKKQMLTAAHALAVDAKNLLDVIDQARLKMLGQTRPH
UniProt Q66H76: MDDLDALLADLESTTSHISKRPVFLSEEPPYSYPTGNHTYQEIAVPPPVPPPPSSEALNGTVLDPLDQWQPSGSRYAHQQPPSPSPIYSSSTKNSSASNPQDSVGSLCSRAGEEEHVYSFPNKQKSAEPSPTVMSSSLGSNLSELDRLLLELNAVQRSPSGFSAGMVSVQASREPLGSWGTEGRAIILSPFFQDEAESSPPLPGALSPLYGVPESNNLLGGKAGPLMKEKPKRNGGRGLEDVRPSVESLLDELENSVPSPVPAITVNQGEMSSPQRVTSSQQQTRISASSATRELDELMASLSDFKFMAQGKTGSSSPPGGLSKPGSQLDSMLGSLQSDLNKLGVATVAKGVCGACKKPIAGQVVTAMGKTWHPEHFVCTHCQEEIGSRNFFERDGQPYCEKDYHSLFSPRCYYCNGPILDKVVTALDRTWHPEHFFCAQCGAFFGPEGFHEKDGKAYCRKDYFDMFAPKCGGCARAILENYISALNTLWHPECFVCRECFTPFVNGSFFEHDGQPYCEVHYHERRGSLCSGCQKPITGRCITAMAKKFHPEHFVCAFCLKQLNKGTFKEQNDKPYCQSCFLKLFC

Assays:
[1] = molecular target: focal adhesion kinase (rat (endogenous in rat primary β-cells)) (UniProt O35346); assay: co-IP; rat primary β-cells kept 4 h in 2.8 mM glucose (low glucose, no inhibitor); lysate (30-50 μg protein) with anti-FAK antibody 1 h at 4 °C, protein A/G-agarose overnight at 4 °C; Western blot for paxillin
[2] = molecular target: focal adhesion kinase (rat (endogenous in rat primary β-cells)) (UniProt O35346); assay: co-IP; rat primary β-cells after 4 h in 2.8 mM glucose then 20 min in 16.7 mM glucose, or 4 h in 2.8 mM glucose with AG1024; lysate (30-50 μg protein) with anti-FAK antibody 1 h at 4 °C, protein A/G-agarose overnight at 4 °C; Western blot for paxillin

- binding [1]: binds weakly
- binding [2]: binds
Substance: paxillin (from UniProt Q66H76 1-586)
